Drawing on article PMC5380948, this text covers binding for one substance.

The target of this assay is T1, c-Myc-tagged MKRN2 (makorin ring finger protein 2) (mouse) (UniProt Q9ERV1).
T1 sequence: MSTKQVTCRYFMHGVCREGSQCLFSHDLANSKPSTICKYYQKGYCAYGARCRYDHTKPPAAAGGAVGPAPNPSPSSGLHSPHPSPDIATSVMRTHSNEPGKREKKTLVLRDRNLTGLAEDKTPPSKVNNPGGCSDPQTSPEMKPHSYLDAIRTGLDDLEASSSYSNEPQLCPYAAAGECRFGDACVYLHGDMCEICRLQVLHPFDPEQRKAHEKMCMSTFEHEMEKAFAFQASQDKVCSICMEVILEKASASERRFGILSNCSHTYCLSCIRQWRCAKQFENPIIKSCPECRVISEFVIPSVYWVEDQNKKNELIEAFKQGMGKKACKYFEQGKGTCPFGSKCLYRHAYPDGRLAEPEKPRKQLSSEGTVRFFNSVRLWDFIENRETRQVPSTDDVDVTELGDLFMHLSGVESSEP
Description: co-IP; 293T cells co-transfected; lysed in 0.5% NP-40, 250 mM NaCl, 10 mM Tris pH 8.0; precipitated with anti-c-Myc antibody-conjugated agarose, washed four times; immunoblot with anti-His or anti-FLAG.

Results are given in words; binding and its absence hold for the method and conditions named. Binding seen in cells or lysates may run through a third protein. Sequences can lack the tags named with a protein.

Take “His-tagged PDLIM2 mutant lacking the LIM domain (∆LIM) (domain or fragment)”: the binding result was “no binding”.
